Literature values in patent publication US5616615A, “Enaminone esters” (priority 1995, dated 1997).
At least one compound was matched to its structure with a doubt left.

Test system: Corneal Kindled rats
Set-up: unit not given beside the values
Conditions: po, 0.5 h, data provided by the ADD Program; cited from earlier work

CCCC(CCC)C(=O)O [valproate, reference compound]
ED50 (reduction from Stage 5 to Stage 4): 117.41
